Data source: PubChem BioAssay AID652243 (Drosophila RNAi Screening Center, 2013)
Screen: 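Knock-downs that decrease or increase androgen receptor reporter signal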 (primary screen). Cell system: Drosophila S2R+ cells. Knock-down reagent: long dsRNA against Drosophila genes. Time to read-out: 72 h (48 h, then 24 h hormone). Treatment: synthetic androgen R1881 at 10 nM for 24 h. Measured: 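Per-well raw luminescence of the androgen-driven firefly reporter and of the Renilla control, two replicates each, without normalisation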. Scale: firefly reporter light: higher = more light from androgen-responsive reporter; Renilla control light: higher = more constitutive control signal (cell number, transfection). Call rule: 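Hit when the log firefly-to-Renilla ratio dropped or increased by a fixed fold versus the mean of GFP or LacZ controls across duplicate plates; lowering cut given as 1.5 and as 3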. Meaning of the calls: active = hit: reporter lowered or raised; inactive = no hit.
In all, the deposit lists about 24,000 reagents; shown is a random part of those that have a named target and a result. Of all reagents, 246 (1%) were called active. 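Plates not normalised; calls are printed but the firefly/Renilla ratio behind them is not deposited; fold cut for lowering reported inconsistently.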 The raw values are shown without normalisation. A plus sign joins genes that one reagent is predicted to hit. No sequences are given here. Not stated in the record: the amount of reagent.

CG34001 [DRSC38847] scored firefly reporter light, replicate 1 = 1.21e6; firefly reporter light, replicate 2 = 1.21e6; Renilla control light, replicate 1 = 2.22e6; Renilla control light, replicate 2 = 1.98e6; inactive. For CG6656 [DRSC16085], the values are firefly reporter light, replicate 1 = 92957; firefly reporter light, replicate 2 = 96845; Renilla control light, replicate 1 = 9.59e5; Renilla control light, replicate 2 = 8.84e5; inactive. Silencing of CG6656 [DRSC36947] resulted in: inactive. CG6656 [DRSC36948] gave inactive. With knock-down of CG31741 [DRSC02887], the screen gave firefly reporter light, replicate 1 = 91827; firefly reporter light, replicate 2 = 1.77e5; Renilla control light, replicate 1 = 1.35e6; Renilla control light, replicate 2 = 2.12e6; inactive. With knock-down of Hecw [DRSC18261], the screen gave firefly reporter light, replicate 1 = 2.38e5; firefly reporter light, replicate 2 = 1.97e5; Renilla control light, replicate 1 = 1.97e6; Renilla control light, replicate 2 = 2.34e6; inactive.

With knock-down of Hecw [DRSC18276] the results were firefly reporter light, replicate 1 = 3.25e5; firefly reporter light, replicate 2 = 3.85e5; Renilla control light, replicate 1 = 3.57e6; Renilla control light, replicate 2 = 3.00e6; inactive. Knock-down of Hecw [DRSC25872] gave: firefly reporter light, replicate 1 = 6.56e5; firefly reporter light, replicate 2 = 5.66e5; Renilla control light, replicate 1 = 1.02e6; Renilla control light, replicate 2 = 1.04e6; inactive. Against cola + swif [DRSC06826] the deposit lists firefly reporter light, replicate 1 = 5.07e5; firefly reporter light, replicate 2 = 3.11e5; Renilla control light, replicate 1 = 2.73e6; Renilla control light, replicate 2 = 1.84e6; inactive. After knock-down of cola + swif [DRSC21965] the results were firefly reporter light, replicate 1 = 4.32e5; firefly reporter light, replicate 2 = 3.96e5; Renilla control light, replicate 1 = 8.35e5; Renilla control light, replicate 2 = 1.18e6; inactive. Tsp47F [DRSC07325] gave firefly reporter light, replicate 1 = 2.35e5; firefly reporter light, replicate 2 = 99412; Renilla control light, replicate 1 = 1.24e6; Renilla control light, replicate 2 = 6.98e5; inactive. After knock-down of Nup93-2 [DRSC16221], the screen gave firefly reporter light, replicate 1 = 60973; firefly reporter light, replicate 2 = 28963; Renilla control light, replicate 1 = 3.61e5; Renilla control light, replicate 2 = 3.24e5; inactive.

Depletion of Pex7 [DRSC10651] gave: firefly reporter light, replicate 1 = 1.49e5; firefly reporter light, replicate 2 = 1.41e5; Renilla control light, replicate 1 = 1.93e6; Renilla control light, replicate 2 = 1.46e6; inactive. Psf2 [DRSC00516] showed firefly reporter light, replicate 1 = 1.36e5; firefly reporter light, replicate 2 = 1.11e5; Renilla control light, replicate 1 = 8.42e5; Renilla control light, replicate 2 = 6.26e5; inactive. Against Nep6 [DRSC19877], the values are firefly reporter light, replicate 1 = 1.01e5; firefly reporter light, replicate 2 = 1.06e5; Renilla control light, replicate 1 = 4.27e5; Renilla control light, replicate 2 = 3.72e5; inactive. Silencing of CG6769 [DRSC20006] resulted in: firefly reporter light, replicate 1 = 1.21e5; firefly reporter light, replicate 2 = 2.88e5; Renilla control light, replicate 1 = 7.08e5; Renilla control light, replicate 2 = 8.16e5; inactive. Silencing of Mal-B1 [DRSC02416] came out at: firefly reporter light, replicate 1 = 4.05e5; firefly reporter light, replicate 2 = 2.73e5; Renilla control light, replicate 1 = 1.38e6; Renilla control light, replicate 2 = 1.87e6; inactive. After knock-down of Mal-B1 [DRSC25542], the screen gave firefly reporter light, replicate 1 = 6.65e5; firefly reporter light, replicate 2 = 5.28e5; Renilla control light, replicate 1 = 1.01e6; Renilla control light, replicate 2 = 7.89e5; inactive.

pnut [DRSC07666] showed firefly reporter light, replicate 1 = 1.20e6; firefly reporter light, replicate 2 = 6.40e5; Renilla control light, replicate 1 = 1.65e6; Renilla control light, replicate 2 = 1.32e6; inactive. pnut [DRSC23971] showed firefly reporter light, replicate 1 = 4.15e5; firefly reporter light, replicate 2 = 4.53e5; Renilla control light, replicate 1 = 5.89e5; Renilla control light, replicate 2 = 5.49e5; inactive. Silencing of CG12523 [DRSC09895] resulted in: firefly reporter light, replicate 1 = 2.01e5; firefly reporter light, replicate 2 = 2.69e5; Renilla control light, replicate 1 = 2.27e6; Renilla control light, replicate 2 = 2.38e6; inactive. With knock-down of CG12523 [DRSC25151], the screen gave firefly reporter light, replicate 1 = 7.15e5; firefly reporter light, replicate 2 = 7.25e5; Renilla control light, replicate 1 = 9.17e5; Renilla control light, replicate 2 = 1.04e6; inactive. Knock-down of lncRNA:roX1 [DRSC21884] gave: firefly reporter light, replicate 1 = 8.77e5; firefly reporter light, replicate 2 = 7.55e5; Renilla control light, replicate 1 = 1.74e6; Renilla control light, replicate 2 = 1.50e6; inactive. Depletion of Ccs [DRSC06692] gave: firefly reporter light, replicate 1 = 2.85e5; firefly reporter light, replicate 2 = 2.20e5; Renilla control light, replicate 1 = 1.42e6; Renilla control light, replicate 2 = 1.34e6; inactive.

Depletion of CG14356 [DRSC14819] came out at: firefly reporter light, replicate 1 = 2.48e5; firefly reporter light, replicate 2 = 1.75e5; Renilla control light, replicate 1 = 3.47e6; Renilla control light, replicate 2 = 2.67e6; inactive. Silencing of MTPAP [DRSC18585] gave: firefly reporter light, replicate 1 = 2.04e5; firefly reporter light, replicate 2 = 1.69e5; Renilla control light, replicate 1 = 2.69e6; Renilla control light, replicate 2 = 2.42e6; inactive. With knock-down of MTPAP [DRSC30055] the results were firefly reporter light, replicate 1 = 1.07e6; firefly reporter light, replicate 2 = 6.94e5; Renilla control light, replicate 1 = 1.37e6; Renilla control light, replicate 2 = 8.06e5; inactive.

4 entries from above, arranged by “firefly reporter light, replicate 1”, lowest first:
CG6769 [DRSC20006] → firefly reporter light, replicate 1: 1.21e5; firefly reporter light, replicate 2: 2.88e5; Renilla control light, replicate 1: 7.08e5; Renilla control light, replicate 2: 8.16e5; call: inactive
Mal-B1 [DRSC02416] → firefly reporter light, replicate 1: 4.05e5; firefly reporter light, replicate 2: 2.73e5; Renilla control light, replicate 1: 1.38e6; Renilla control light, replicate 2: 1.87e6; call: inactive
Mal-B1 [DRSC25542] → firefly reporter light, replicate 1: 6.65e5; firefly reporter light, replicate 2: 5.28e5; Renilla control light, replicate 1: 1.01e6; Renilla control light, replicate 2: 7.89e5; call: inactive
pnut [DRSC07666] → firefly reporter light, replicate 1: 1.20e6; firefly reporter light, replicate 2: 6.40e5; Renilla control light, replicate 1: 1.65e6; Renilla control light, replicate 2: 1.32e6; call: inactive
